Cleaved PARP after 72 h of treatment

From a melanoma drug combination screen (doi:10.1371/journal.pone.0140310); values rounded.

Drugs:
AS-252424: O=C1NC(=O)/C(=C/c2ccc(-c3ccc(F)cc3O)o2)S1 at 5 µM
BI-78D3: O=c1[nH]nc(Sc2ncc([N+](=O)[O-])s2)n1-c1ccc2c(c1)OCCO2 at 1 µM
vismodegib: CS(=O)(=O)c1ccc(C(=O)Nc2ccc(Cl)c(-c3ccccn3)c2)c(Cl)c1 at 5 µM
T0901317: O=S(=O)(c1ccccc1)N(CC(F)(F)F)c1ccc(C(O)(C(F)(F)F)C(F)(F)F)cc1 at 7 µM
dorsomorphin: c1cc(-c2cnn3cc(-c4ccc(OCCN5CCCCC5)cc4)cnc23)ccn1 at 2 µM
embelin: CCCCCCCCCCCC1=C(O)C(=O)C=C(O)C1=O at 6 µM
MK-2206: NC1(c2ccc(-c3nc4ccn5c(=O)[nH]nc5c4cc3-c3ccccc3)cc2)CCC1 at 2 µM
cediranib: COc1cc2c(Oc3ccc4[nH]c(C)cc4c3F)ncnc2cc1OCCCN1CCCC1 at 2 µM
VX-702: NC(=O)c1ccc(N(C(N)=O)c2c(F)cccc2F)nc1-c1ccc(F)cc1F at 2 µM

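The test systems are human melanoma cell lines, treated with a pair of drugs for 72 h and then stained and imaged. Values are the share of nuclei positive for cleaved PARP as a percentage of the same share in the DMSO control: 100 is the control level, higher means more apoptosis. Concentrations were fixed for each drug; these are the higher of two levels. The file gives one value for each pair and line, without errors, so small differences may be noise. The marker varies much from line to line, for technical or biological reasons.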 An unselected part of the screen is shown. An entry leaves out what has no value listed here. A dash means that no value is listed here.

{"pair": "dorsomorphin + cediranib", "RPMI-7951": 78.2, "WM1745": 170, "C32": 172, "UACC-257": 45.5, "RVH-421": 112}
{"pair": "MK-2206 + dorsomorphin", "RPMI-7951": 323, "C32": 147, "UACC-257": 23.1, "RVH-421": 93.8}
{"pair": "cediranib + embelin", "RPMI-7951": 57.3, "WM1745": 149, "C32": 262, "UACC-257": 23.5, "RVH-421": 144}
{"pair": "MK-2206 + T0901317", "RPMI-7951": 229, "C32": 95.5, "UACC-257": 37.5, "RVH-421": 287}
{"pair": "dorsomorphin + embelin", "RPMI-7951": 97.6, "WM1745": 190, "C32": 152, "UACC-257": 30.2, "RVH-421": 186}
{"pair": "AS-252424 + T0901317", "RPMI-7951": 57.6, "WM1745": 155, "C32": 407, "UACC-257": 12.1, "RVH-421": 45.3}
{"pair": "AS-252424 + dorsomorphin", "RPMI-7951": 86.0, "WM1745": 157, "C32": 144, "UACC-257": 28.5, "RVH-421": 84.0}
{"pair": "VX-702 + AS-252424", "RPMI-7951": 115, "C32": 243, "UACC-257": 84.5, "RVH-421": 152}
{"pair": "embelin + MK-2206", "RPMI-7951": 264, "C32": 93.8, "UACC-257": 69.0, "RVH-421": 197}
{"pair": "MK-2206 + cediranib", "RPMI-7951": 49.3, "WM1745": 107, "C32": 211, "UACC-257": 36.8, "RVH-421": 111}
{"pair": "embelin + AS-252424", "RPMI-7951": 158, "WM1745": 144, "C32": 94.3, "UACC-257": 59.3, "RVH-421": 220}
{"pair": "VX-702 + BI-78D3", "RPMI-7951": 94.4, "WM1745": 103, "C32": 160, "UACC-257": 47.4, "RVH-421": 646}
{"pair": "VX-702 + embelin", "RPMI-7951": 119, "C32": 236, "UACC-257": 58.1, "RVH-421": 89.8}
{"pair": "vismodegib + T0901317", "RPMI-7951": 57.2, "C32": 79.6, "UACC-257": 30.9, "RVH-421": 108}
{"pair": "vismodegib + BI-78D3", "RPMI-7951": 120, "WM1745": 75.2, "C32": 39.8, "UACC-257": 69.0, "RVH-421": 162}
{"pair": "vismodegib + MK-2206", "RPMI-7951": 42.0, "WM1745": 84.8, "C32": 139, "UACC-257": 52.5, "RVH-421": 120}
{"pair": "vismodegib + AS-252424", "RPMI-7951": 58.6, "C32": 76.9, "UACC-257": 83.0, "RVH-421": 31.6}
{"pair": "T0901317 + VX-702", "RPMI-7951": 127, "C32": 72.4, "UACC-257": 72.7, "RVH-421": 157}
{"pair": "BI-78D3 + dorsomorphin", "RPMI-7951": 140, "C32": 140, "UACC-257": 29.6, "RVH-421": 72.6}
{"pair": "T0901317 + BI-78D3", "RPMI-7951": 96.6, "C32": 93.4, "UACC-257": 25.5, "RVH-421": 88.9}
{"pair": "vismodegib + VX-702", "RPMI-7951": 41.8, "WM1745": 102, "C32": 51.7, "UACC-257": 35.5, "RVH-421": 141}
{"pair": "cediranib + AS-252424", "RPMI-7951": 33.2, "WM1745": 132, "C32": 159, "UACC-257": 64.8, "RVH-421": 224}
{"pair": "embelin + T0901317", "RPMI-7951": 123, "WM1745": 149, "C32": 92.7, "UACC-257": 71.6, "RVH-421": 130}
{"pair": "VX-702 + MK-2206", "RPMI-7951": 61.2, "WM1745": 98.0, "C32": 157, "UACC-257": 27.2, "RVH-421": 149}
{"pair": "AS-252424 + MK-2206", "RPMI-7951": 97.7, "C32": 99.8, "UACC-257": 35.7, "RVH-421": 170}
{"pair": "dorsomorphin + VX-702", "RPMI-7951": 314, "C32": 111, "UACC-257": 19.4, "RVH-421": 75.5}
{"pair": "cediranib + T0901317", "RPMI-7951": 106, "WM1745": 149, "C32": 121, "UACC-257": 51.6, "RVH-421": 153}
{"pair": "embelin + vismodegib", "RPMI-7951": 131, "C32": 70.6, "UACC-257": 23.2, "RVH-421": 430}
{"pair": "vismodegib + dorsomorphin", "RPMI-7951": 229, "C32": 151, "UACC-257": 163, "RVH-421": 35.1}
{"pair": "dorsomorphin + T0901317", "RPMI-7951": 114, "WM1745": 197, "C32": 187, "UACC-257": 79.9, "RVH-421": 37.2}
{"pair": "BI-78D3 + cediranib", "RPMI-7951": 47.7, "WM1745": 182, "C32": 144, "UACC-257": 69.1, "RVH-421": 104}
{"pair": "cediranib + vismodegib", "RPMI-7951": 61.6, "WM1745": 94.2, "C32": 118, "UACC-257": 34.2, "RVH-421": 44.3}
{"pair": "MK-2206 + BI-78D3", "RPMI-7951": 79.3, "WM1745": 106, "C32": 60.0, "UACC-257": 32.1, "RVH-421": 74.1}
{"pair": "cediranib + VX-702", "RPMI-7951": 44.1, "WM1745": 109, "C32": 194, "UACC-257": 69.9, "RVH-421": 97.4}
{"pair": "BI-78D3 + embelin", "RPMI-7951": 60.5, "C32": 82.7, "UACC-257": 77.1, "RVH-421": 401}
{"pair": "BI-78D3 + AS-252424", "RPMI-7951": 55.4, "C32": 86.1, "UACC-257": 20.2, "RVH-421": 91.8}

For reference, 4 entries once more:

Pair,RPMI-7951,WM1745,C32,UACC-257,RVH-421
T0901317 + BI-78D3,96.6,-,93.4,25.5,88.9
BI-78D3 + embelin,60.5,-,82.7,77.1,401
MK-2206 + cediranib,49.3,107,211,36.8,111
AS-252424 + T0901317,57.6,155,407,12.1,45.3